Experimental data: patent US20100168443A1 (UNIVERSITY OF VIRGINIA PATENT FOUNDATION, priority 2006, published 2010)

Assays:
[1] = general procedure: Fmoc solid-phase peptide synthesis; SynPhase PA Rink Amide Linker derivatised lanterns (Mimotopes); DIC/HOBT; settings: whole synthesis, analytical HPLC-MS, scale of the general procedure 8 umol
[2] = general procedure: Fmoc solid-phase peptide synthesis; trityl resin; DIC/HOBT; settings: whole synthesis, scale 0.3 mmol

Substance | crude purity (method not given) [1] [%] | other results
Neurokinin B | 79 | –
Bombesin | 69 | –
Substance P | 72 | –
Neurokinin A | 84 | –
H-Proψ[CH2O]Gluψ[CH2O]Glnψ[CH2O]Glyψ[CH2O]Tyrψ[CH2O]Asn-NH2 | – | crude mass [2]: 48 mg; crude yield [2]: 25% yield; isolated mass [2]: 19 mg; isolated yield [2]: 10% yield
Somatostatin | 98 | –
